From publication PMC11811199
Positions count from the first letter of the chain named. No constants are given. Whether binding was seen depends on the method and setting. Binding seen in cells or lysates may run through a third protein. Some results given as binding are weak or reduced against the parent protein; the word gives no strength. For some assays here: Sequences can lack the tags named with a protein.

Protein sequences, listed by entry. Tags and fused reporters are not part of them.
UniProt Q7Z434: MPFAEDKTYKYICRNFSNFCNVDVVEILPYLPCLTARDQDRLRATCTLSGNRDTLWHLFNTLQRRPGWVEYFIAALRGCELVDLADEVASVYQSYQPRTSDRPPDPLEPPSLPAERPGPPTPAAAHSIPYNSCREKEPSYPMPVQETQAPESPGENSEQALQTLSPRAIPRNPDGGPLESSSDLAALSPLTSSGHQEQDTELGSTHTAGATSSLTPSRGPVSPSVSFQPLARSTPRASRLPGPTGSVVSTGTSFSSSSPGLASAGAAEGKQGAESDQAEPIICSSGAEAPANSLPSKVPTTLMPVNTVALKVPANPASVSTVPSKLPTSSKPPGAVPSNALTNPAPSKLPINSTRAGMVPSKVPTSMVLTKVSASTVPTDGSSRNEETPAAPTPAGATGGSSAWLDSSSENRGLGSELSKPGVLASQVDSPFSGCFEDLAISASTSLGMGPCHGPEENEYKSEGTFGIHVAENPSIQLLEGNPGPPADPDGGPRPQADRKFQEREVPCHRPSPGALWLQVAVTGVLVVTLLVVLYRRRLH
UniProt Q14653: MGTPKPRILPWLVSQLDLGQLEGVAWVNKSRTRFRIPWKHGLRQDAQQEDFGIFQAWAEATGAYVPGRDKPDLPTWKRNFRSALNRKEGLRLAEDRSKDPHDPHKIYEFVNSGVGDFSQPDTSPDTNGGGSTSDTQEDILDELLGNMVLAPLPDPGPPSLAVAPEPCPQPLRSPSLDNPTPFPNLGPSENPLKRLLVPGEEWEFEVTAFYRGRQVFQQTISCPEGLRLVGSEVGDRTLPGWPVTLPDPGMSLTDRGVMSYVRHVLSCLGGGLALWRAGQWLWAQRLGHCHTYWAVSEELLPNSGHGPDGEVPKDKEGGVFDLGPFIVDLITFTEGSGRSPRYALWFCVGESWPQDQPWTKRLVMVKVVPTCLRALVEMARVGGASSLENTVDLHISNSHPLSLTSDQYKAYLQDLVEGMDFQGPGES

Columns and labels:
Test in all cases: co-IP
DYRK4-Flag = target: T1, DYRK4-Flag (UniProt Q9NR20)
T1 sequence: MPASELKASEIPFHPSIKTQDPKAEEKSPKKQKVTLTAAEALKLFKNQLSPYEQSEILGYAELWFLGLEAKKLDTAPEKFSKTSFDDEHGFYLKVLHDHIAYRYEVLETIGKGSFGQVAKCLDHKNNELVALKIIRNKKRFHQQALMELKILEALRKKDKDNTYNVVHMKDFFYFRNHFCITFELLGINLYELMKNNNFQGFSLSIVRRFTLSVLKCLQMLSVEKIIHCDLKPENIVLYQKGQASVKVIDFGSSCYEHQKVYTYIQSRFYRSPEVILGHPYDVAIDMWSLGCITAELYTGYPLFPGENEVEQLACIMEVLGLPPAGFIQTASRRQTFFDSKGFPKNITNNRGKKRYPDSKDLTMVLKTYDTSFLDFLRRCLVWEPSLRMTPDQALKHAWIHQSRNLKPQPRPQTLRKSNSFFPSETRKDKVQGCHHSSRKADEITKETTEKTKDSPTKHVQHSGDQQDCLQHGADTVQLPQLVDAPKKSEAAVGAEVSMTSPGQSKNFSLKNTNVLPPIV

[1] = target: T2, DYRK4-MT (K133R/Y264F)-Flag (UniProt Q9NR20)
T2 sequence: T1 sequence with K133R, Y264F

Flag-MAVS = Flag-MAVS (UniProt Q7Z434)
Flag-TBK1 = target: T3, Flag-TBK1 (UniProt Q9UHD2)
T3 sequence: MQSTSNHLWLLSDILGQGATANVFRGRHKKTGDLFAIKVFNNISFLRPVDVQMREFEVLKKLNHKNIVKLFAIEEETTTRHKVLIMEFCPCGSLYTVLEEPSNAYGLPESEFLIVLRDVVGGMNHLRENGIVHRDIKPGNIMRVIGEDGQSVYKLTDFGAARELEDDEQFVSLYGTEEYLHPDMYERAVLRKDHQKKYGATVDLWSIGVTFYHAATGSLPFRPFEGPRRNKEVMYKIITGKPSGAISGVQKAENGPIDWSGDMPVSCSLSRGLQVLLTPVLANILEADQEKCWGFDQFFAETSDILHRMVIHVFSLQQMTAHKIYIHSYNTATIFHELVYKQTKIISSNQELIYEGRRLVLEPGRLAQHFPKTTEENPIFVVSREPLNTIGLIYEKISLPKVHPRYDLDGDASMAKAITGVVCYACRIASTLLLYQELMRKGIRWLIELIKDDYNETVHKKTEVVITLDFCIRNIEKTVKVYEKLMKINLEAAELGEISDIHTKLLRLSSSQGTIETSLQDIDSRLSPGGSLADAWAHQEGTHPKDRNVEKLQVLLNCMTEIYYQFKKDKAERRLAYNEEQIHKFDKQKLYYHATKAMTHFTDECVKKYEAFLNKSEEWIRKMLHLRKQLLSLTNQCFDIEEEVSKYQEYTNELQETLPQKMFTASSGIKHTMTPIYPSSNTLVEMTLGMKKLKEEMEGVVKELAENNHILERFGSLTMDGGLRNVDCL

TRIM71-Flag = target: T4, TRIM71-Flag (UniProt Q2Q1W2)
T4 sequence: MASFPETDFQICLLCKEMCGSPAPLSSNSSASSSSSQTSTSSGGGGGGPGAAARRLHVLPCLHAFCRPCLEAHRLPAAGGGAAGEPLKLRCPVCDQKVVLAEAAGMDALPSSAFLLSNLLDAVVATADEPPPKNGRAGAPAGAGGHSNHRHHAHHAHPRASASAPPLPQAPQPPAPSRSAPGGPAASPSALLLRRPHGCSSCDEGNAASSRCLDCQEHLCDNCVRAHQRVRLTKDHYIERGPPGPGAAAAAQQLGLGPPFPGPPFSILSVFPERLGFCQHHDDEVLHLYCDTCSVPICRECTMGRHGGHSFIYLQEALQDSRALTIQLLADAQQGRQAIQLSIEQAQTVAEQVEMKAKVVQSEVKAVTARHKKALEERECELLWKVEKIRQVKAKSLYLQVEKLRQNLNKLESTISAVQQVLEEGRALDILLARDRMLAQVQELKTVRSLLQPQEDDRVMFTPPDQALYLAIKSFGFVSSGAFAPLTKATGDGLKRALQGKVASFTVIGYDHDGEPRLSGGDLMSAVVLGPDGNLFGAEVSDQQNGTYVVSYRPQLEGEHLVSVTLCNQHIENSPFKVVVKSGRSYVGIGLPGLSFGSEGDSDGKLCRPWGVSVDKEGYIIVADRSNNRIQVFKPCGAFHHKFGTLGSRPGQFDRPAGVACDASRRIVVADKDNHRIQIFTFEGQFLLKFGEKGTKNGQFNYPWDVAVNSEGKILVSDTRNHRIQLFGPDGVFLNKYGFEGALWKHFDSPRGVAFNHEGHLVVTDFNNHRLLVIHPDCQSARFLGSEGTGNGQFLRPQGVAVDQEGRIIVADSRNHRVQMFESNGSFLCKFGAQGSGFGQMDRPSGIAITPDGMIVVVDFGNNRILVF

binding (DYRK4-Flag): binds
binding [1]: binds
binding (Flag-MAVS): binds
binding (Flag-TBK1): binds
binding (TRIM71-Flag): binds
Substance: HA-IRF3 (from UniProt Q14653 1-427)
